This note sets out measurements from paper PMC4422613.

By UniProt entry, the sequences of proteins in these tests, tags left out. Where a name states a change or a piece, a line headed by the entry shows the natural chain unless it says otherwise.
UniProt F4K567: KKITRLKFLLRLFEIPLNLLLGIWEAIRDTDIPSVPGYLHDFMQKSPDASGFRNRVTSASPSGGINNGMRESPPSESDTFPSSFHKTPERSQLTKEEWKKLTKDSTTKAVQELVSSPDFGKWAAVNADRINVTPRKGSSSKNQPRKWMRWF
UniProt Q0WVK0: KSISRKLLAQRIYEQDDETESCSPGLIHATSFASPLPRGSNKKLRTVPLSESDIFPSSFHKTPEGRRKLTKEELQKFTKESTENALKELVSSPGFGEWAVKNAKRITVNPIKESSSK
UniProt P41917: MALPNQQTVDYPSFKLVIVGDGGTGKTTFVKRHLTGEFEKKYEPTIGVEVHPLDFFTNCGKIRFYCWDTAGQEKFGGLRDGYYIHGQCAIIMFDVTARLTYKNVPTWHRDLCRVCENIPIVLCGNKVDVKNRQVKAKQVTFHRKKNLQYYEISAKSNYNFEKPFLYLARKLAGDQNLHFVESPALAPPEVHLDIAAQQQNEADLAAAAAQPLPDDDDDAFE

Results are given in words; binding and its absence hold for the method and conditions named. Binding seen in cells or lysates may run through a third protein. A result given as binding can be weak or reduced; the word gives no strength. For some of these results: Tags and fused reporters may be left off the sequences shown.

In test [1] the target is At_Nemp-A Ct (GFP-tagged C-terminal region) (Arabidopsis thaliana) (UniProt Q9SHQ6). Put plainly: co-IP; Xenopus embryos co-injected with mRNAs; conditions as in Fig 3; immunoprecipitation against HA, western blot with anti-Myc or anti-HA. A general note: A western blot detects proteins with antibodies after separation by electrophoresis.
Test [2] addresses At_Nemp-B Ct (GFP-tagged C-terminal region) (Arabidopsis thaliana) (UniProt F4K567). The test is described as above.
In test [3] the target is At_Nemp-C Ct (GFP-tagged C-terminal region) (Arabidopsis thaliana) (UniProt Q0WVK0). Described as above.
For a further test, the target named is T1, Hs_emerin-Myc (human) (UniProt P50402).
T1 sequence: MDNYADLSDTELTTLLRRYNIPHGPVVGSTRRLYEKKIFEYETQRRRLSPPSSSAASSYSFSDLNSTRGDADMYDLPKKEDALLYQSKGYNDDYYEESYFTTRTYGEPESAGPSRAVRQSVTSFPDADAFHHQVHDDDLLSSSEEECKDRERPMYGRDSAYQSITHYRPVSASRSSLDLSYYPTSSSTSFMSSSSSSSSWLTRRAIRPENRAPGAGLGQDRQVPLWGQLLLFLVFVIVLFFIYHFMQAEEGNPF
The test is described as follows: co-IP; Xenopus embryos co-injected with mRNAs, collected at the late blastula stage (stage 9), lysis buffer A; immunoprecipitation against Myc, western blot with anti-Myc or anti-HA.

“Myc-tagged At_Ran2 (from UniProt P41917 1-221)”: the binding result in test [1] is “binds”; in test [2], “binds weakly”; in test [3], “binds weakly”.
Turning to “Xl_Nemp1 (Xenopus laevis Nemp1), wild type”, the binding entry in the test with Hs_emerin-Myc (human) is “binds”.
